In PMC11342374 (2024):

Test: general procedure: Fmoc solid-phase peptide synthesis; polystyrene-supported MBHA Fmoc-protected Rink amide resin (0.64 mmol/g loading, Protein Technologies); bromoacetic acid / DIC (submonomer method)
Details: whole synthesis, HPLC-UV, ACQUITY UPLC protein BEH C4 column, scale of the general procedure 200 mg scale of the general procedure

| Substance | purity (crude or final not stated) [%] |
| --- | --- |
| Apd-Hex-Dod-Ehx-Hex-Dod-Ehx | 94.12 |
| Apd-Dod-Dod-Oct-Dod-Dod-Oct | 91.21 |
| Apd-Dec-Ehx-Dec-Dec-Ehx-Dec | 91.31 |
| Dea-Dod-Dod-Dod-Dod | 90.83 |
| Apd-Ole-Dec-Ole-Dec | 63.81 |
| Nhp-Dod-Dod-Dod-Dod | 94.036 |
| Apd-Dod-Dec-Dod-Dec | 98.4 |
| Apd-Dod-Dod-Dod-Dod | 96.89 |
| Apd-Ole-Hex-Hex-Hex-Ole-Hex-Hex-Hex | 53.34 |
| Apr-Dod-Dod-Dod-Dod | 82.98 |
| Apd-Oct-Hex-Hex-Hex-Hex-Hex-Hex-Oct | 92.79 |
| Apd-Ehx-Dod-Dod-Hex-Ehx-Dod-Dod-Hex | 95.93 |
| Apd-Ole-Oct-Ole-Oct | 62.25 |
| Apd-Ole-Oct-Ole | 68.5 |
| Nme-Dod-Dod-Dod-Dod | 87.24 |
| Apd-Oct-Dod-Ehx-Oct-Dod-Ehx | 93.49 |
| Apd-Ehx-Oct-Oct-Oct-Ehx-Oct-Oct-Oct | 93.66 |
| Apd-Dod-Dod-Dod-Dod-Dod-Dod | 87.77 |
| Apd-Dod-Ole-Dod | 89.1 |
| Apd-Ole-Dec-Ole | 81.18 |
| Apd-Ehx-Hex-Ehx-Hex-Ehx-Hex-Ehx-Hex | 93.19 |
| Mip-Dod-Dod-Dod-Dod | 87.94 |
| Nmp-Dod-Dod-Dod-Dod | 99.09 |

| Substance | purity (crude or final not stated) [%] |
| --- | --- |
| Apd-Dod-Ehx-Dod-Dod-Ehx-Dod | 90.41 |
| Apd-Ehx-Ehx-Hex-Ehx-Ehx-Hex | 96.49 |
| Apd-Dec-Dec-Dec-Dec | 96.62 |
| Apd-Hex-Hex-Hex-Hex-Hex-Hex-Hex-Hex | 92.22 |
| Apd-Dod-Ehx-Ehx-Dod-Ehx-Ehx | 97.52 |
| Apd-Oct-Oct-Hex-Oct-Oct-Hex | 85.35 |
| Eae-Dod-Dod-Dod-Dod | 94.12 |
| Apd-Dec-Dec-Ehx-Dec-Dec-Ehx | 99.64 |
| Apd-Ehx-Ehx-Ehx-Ehx | 100 |
| Apd-Dod-Ehx-Dod-Ehx | 100 |
| Apd-Ehx-Dec-Dec-Dec-Ehx-Dec-Dec-Dec | 91.07 |
| Apd-Ehx-Dod-Hex-Hex-Ehx-Dod-Hex-Hex | 93.4 |
| Nhe-Dod-Dod-Dod-Dod | 90.86 |
| Apd-Oct-Dec-Hex-Oct-Dec-Hex | 60.41 |
| Mop-Dod-Dod-Dod-Dod | 98.5 |
| Dme-Dod-Dod-Dod-Dod | 81.18 |
| Apd-Dod-Dod-Ehx-Dod-Dod-Ehx | 94.48 |
| Apd-Oct-Oct-Dec-Oct-Oct-Dec | 95.3 |
| Apd-Oct-Dec-Ehx-Oct-Dec-Ehx | 96.01 |
| Aet-Dod-Dod-Dod-Dod | 87.12 |
| Apd-Ehx-Dod-Ehx-Ehx-Dod-Ehx | 93.88 |
| Apd-Dec-Dod-Dec-Dec-Dod-Dec | 80.69 |
